{"source": "the supplement of paper PMC8728848", "binders": {"B1": {"name": "Thrombomodulin Lectin (Mus musculus) (protein)", "chain": "LSALAKLQPTGSQCVEHECFALFQGPATFLDASQACQRLQGHLMTVRSSVAADVISLLLSQSSMDLGPWIGLQLPQGCDDPVHLGPLRGFQWVTGDNHTSYSRWARPNDQTAPLCGPLCVTVSTATEAAPGEPAWEEKPCETETQGFLCEFYFTASCRVDPIPVREDTKEEEGAGEPPVSPTPGSPTGPPSARPVLDEPRVPITQNPCPPLKECPPCAAPDLEGGPSVFIFPPKIKDVLMISLSPMVTCVVVDVSEDDPDVQISWFVNNVEVHTAQTQTHREDYNSTLRVVSALPIQHQDWMSGKAFACAVNNRALPSPIEKTISKPRGPVRAPQVYVLPPPAEEMTKKEFSLTCMITGFLPAEIAVDWTSNGRTEQNYKNTATVLDSDGSYFMYSKLRVQKSTWERGSLFACSVVHEGLHNHLTTKTISRSLGK"}}, "assay_in_all_cases": "glycan array binding signal (z-score within array); higher = stronger binding", "conditions_in_all_cases": "glycan notation: IUPAC condensed, linker removed", "key": {"Fuc(a1-2)Gal": {"target": "Fuc(a1-2)Gal", "summary_of_the_method": "(§1)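 Columns mapping to the same glycan were averaged after glycan names were converted to IUPAC-condensed notation. The data come from 3228 arrays in the Consortium for Functional Glycomics database, limited to those with an available protein sequence. Binding is reported as a within-array Z-score averaged across arrays of one protein sequence and across linkers.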"}, "Fuc(a1-2)Gal(b1-3)GalNAc": {"target": "Fuc(a1-2)Gal(b1-3)GalNAc", "summary_of_the_method": "as §1"}, "[1]": {"target": "Fuc(a1-2)Gal(b1-3)GalNAc(a1-3)[Fuc(a1-2)]Gal(b1-4)Glc", "summary_of_the_method": "as §1"}, "[2]": {"target": "Fuc(a1-2)Gal(b1-3)GalNAc(a1-3)[Fuc(a1-2)]Gal(b1-4)GlcNAc", "summary_of_the_method": "as §1"}, "[3]": {"target": "Fuc(a1-2)Gal(b1-3)GalNAc(b1-3)Gal", "summary_of_the_method": "as §1"}, "[4]": {"target": "Fuc(a1-2)Gal(b1-3)GalNAc(b1-3)Gal(a1-4)Gal(b1-4)Glc", "summary_of_the_method": "as §1"}, "[5]": {"target": "Fuc(a1-2)Gal(b1-3)GalNAc(b1-4)[Neu5Ac(a2-3)]Gal(b1-4)Glc", "summary_of_the_method": "as §1"}, "Fuc(a1-2)Gal(b1-3)GlcNAc": {"target": "Fuc(a1-2)Gal(b1-3)GlcNAc", "summary_of_the_method": "as §1"}, "[6]": {"target": "Fuc(a1-2)Gal(b1-3)GlcNAc(b1-2)Man(a1-3)[Fuc(a1-2)Gal(b1-3)GlcNAc(b1-2)Man(a1-6)]Man(b1-4)GlcNAc(b1-4)GlcNAc", "summary_of_the_method": "as §1"}, "[7]": {"target": "Fuc(a1-2)Gal(b1-3)GlcNAc(b1-2)Man(a1-3)[Fuc(a1-2)Gal(b1-3)GlcNAc(b1-2)Man(a1-6)]Man(b1-4)GlcNAc(b1-4)[Fuc(a1-6)]GlcNAc", "summary_of_the_method": "as §1"}, "[8]": {"target": "Fuc(a1-2)Gal(b1-3)GlcNAc(b1-3)Gal(b1-4)Glc", "summary_of_the_method": "as §1"}, "[9]": {"target": "Fuc(a1-2)Gal(b1-3)GlcNAc(b1-3)GalNAc", "summary_of_the_method": "as §1"}, "[10]": {"target": "Fuc(a1-2)Gal(b1-3)GlcNAc(b1-3)[Fuc(a1-2)Gal(b1-3)GlcNAc(b1-6)]GalNAc", "summary_of_the_method": "as §1"}, "[11]": {"target": "Fuc(a1-2)Gal(b1-3)GlcNAc(b1-3)[Gal(b1-4)GlcNAc(b1-6)]Gal(b1-4)Glc", "summary_of_the_method": "as §1"}, "[12]": {"target": "Fuc(a1-2)Gal(b1-3)GlcNAc(b1-3)[Neu5Ac(a2-6)Gal(b1-4)GlcNAc(b1-6)]Gal(b1-4)Glc", "summary_of_the_method": "as §1"}, "[13]": {"target": "Fuc(a1-2)Gal(b1-3)GlcNAc6S", "summary_of_the_method": "as §1"}, "[14]": {"target": "Fuc(a1-2)Gal(b1-3)[Fuc(a1-4)]GlcNAc", "summary_of_the_method": "as §1"}, "[15]": {"target": "Fuc(a1-2)Gal(b1-3)[Fuc(a1-4)]GlcNAc(b1-2)Man(a1-3)[Fuc(a1-2)Gal(b1-3)[Fuc(a1-4)]GlcNAc(b1-2)Man(a1-3)]Man(b1-4)GlcNAc(b1-4)GlcNAc", "summary_of_the_method": "as §1"}, "[16]": {"target": "Fuc(a1-2)Gal(b1-3)[Fuc(a1-4)]GlcNAc(b1-2)Man(a1-3)[Fuc(a1-2)Gal(b1-3)[Fuc(a1-4)]GlcNAc(b1-2)Man(a1-6)]Man(b1-4)GlcNAc(b1-4)[Fuc(a1-6)]GlcNAc(b1-4)[Fuc(a1-6)]GlcNAc", "summary_of_the_method": "as §1"}, "[17]": {"target": "Fuc(a1-2)Gal(b1-3)[Fuc(a1-4)]GlcNAc(b1-3)[Fuc(a1-3)[Gal(b1-4)]GlcNAc(b1-6)]Gal(b1-4)Glc", "summary_of_the_method": "as §1"}, "[18]": {"target": "Fuc(a1-2)Gal(b1-3)[Fuc(a1-4)]GlcNAc(b1-3)[Gal(b1-4)GlcNAc(b1-6)]Gal(b1-4)Glc", "summary_of_the_method": "as §1"}, "Fuc(a1-2)Gal(b1-4)Glc": {"target": "Fuc(a1-2)Gal(b1-4)Glc", "summary_of_the_method": "as §1"}, "Fuc(a1-2)Gal(b1-4)Glc6S": {"target": "Fuc(a1-2)Gal(b1-4)Glc6S", "summary_of_the_method": "as §1"}, "Fuc(a1-2)Gal(b1-4)GlcNAc": {"target": "Fuc(a1-2)Gal(b1-4)GlcNAc", "summary_of_the_method": "as §1"}, "[19]": {"target": "Fuc(a1-2)Gal(b1-4)GlcNAc(b1-2)Man", "summary_of_the_method": "as §1"}, "[20]": {"target": "Fuc(a1-2)Gal(b1-4)GlcNAc(b1-2)Man(a1-3)[Fuc(a1-2)Gal(b1-4)GlcNAc(b1-2)Man(a1-6)]Man(b1-4)GlcNAc(b1-4)GlcNAc", "summary_of_the_method": "as §1"}, "[21]": {"target": "Fuc(a1-2)Gal(b1-4)GlcNAc(b1-2)Man(a1-3)[Fuc(a1-2)Gal(b1-4)GlcNAc(b1-2)Man(a1-6)]Man(b1-4)GlcNAc(b1-4)[Fuc(a1-6)]GlcNAc", "summary_of_the_method": "as §1"}, "[22]": {"target": "Fuc(a1-2)Gal(b1-4)GlcNAc(b1-2)[Fuc(a1-2)Gal(b1-4)GlcNAc(b1-4)]Man(a1-3)[Fuc(a1-2)Gal(b1-4)GlcNAc(b1-2)Man(a1-6)]Man(b1-4)GlcNAc(b1-4)GlcNAc", "summary_of_the_method": "as §1"}, "[23]": {"target": "Fuc(a1-2)Gal(b1-4)GlcNAc(b1-3)Gal(b1-4)GlcNAc", "summary_of_the_method": "as §1"}, "[24]": {"target": "Fuc(a1-2)Gal(b1-4)GlcNAc(b1-3)Gal(b1-4)GlcNAc(b1-2)Man(a1-3)[Fuc(a1-2)Gal(b1-4)GlcNAc(b1-3)Gal(b1-4)GlcNAc(b1-2)Man(a1-6)]Man(b1-4)GlcNAc(b1-4)GlcNAc", "summary_of_the_method": "as §1"}}, "note": "The other results are listed elsewhere or left out."}
{"binder": "B1", "values": [{"measurement": "glycan array binding signal (z-score)", "setting": "Fuc(a1-2)Gal", "result": -0.471}, {"measurement": "glycan array binding signal (z-score)", "setting": "Fuc(a1-2)Gal(b1-3)GalNAc", "result": -0.016}, {"measurement": "glycan array binding signal (z-score)", "setting": "[1]", "result": -1.7}, {"measurement": "glycan array binding signal (z-score)", "setting": "[2]", "result": 0.628}, {"measurement": "glycan array binding signal (z-score)", "setting": "[3]", "result": -0.06}, {"measurement": "glycan array binding signal (z-score)", "setting": "[4]", "result": -1.04}, {"measurement": "glycan array binding signal (z-score)", "setting": "[5]", "result": -0.189}, {"measurement": "glycan array binding signal (z-score)", "setting": "Fuc(a1-2)Gal(b1-3)GlcNAc", "result": 0.159}, {"measurement": "glycan array binding signal (z-score)", "setting": "[6]", "result": 0.062}, {"measurement": "glycan array binding signal (z-score)", "setting": "[7]", "result": -0.107}, {"measurement": "glycan array binding signal (z-score)", "setting": "[8]", "result": -0.113}, {"measurement": "glycan array binding signal (z-score)", "setting": "[9]", "result": 0.4}, {"measurement": "glycan array binding signal (z-score)", "setting": "[10]", "result": 0.65}, {"measurement": "glycan array binding signal (z-score)", "setting": "[11]", "result": -0.227}, {"measurement": "glycan array binding signal (z-score)", "setting": "[12]", "result": 0.887}, {"measurement": "glycan array binding signal (z-score)", "setting": "[13]", "result": 0.171}, {"measurement": "glycan array binding signal (z-score)", "setting": "[14]", "result": -1.07}, {"measurement": "glycan array binding signal (z-score)", "setting": "[15]", "result": 0.196}, {"measurement": "glycan array binding signal (z-score)", "setting": "[16]", "result": -1.04}, {"measurement": "glycan array binding signal (z-score)", "setting": "[17]", "result": -0.635}, {"measurement": "glycan array binding signal (z-score)", "setting": "[18]", "result": 0.776}, {"measurement": "glycan array binding signal (z-score)", "setting": "Fuc(a1-2)Gal(b1-4)Glc", "result": -0.298}, {"measurement": "glycan array binding signal (z-score)", "setting": "Fuc(a1-2)Gal(b1-4)Glc6S", "result": -0.846}, {"measurement": "glycan array binding signal (z-score)", "setting": "Fuc(a1-2)Gal(b1-4)GlcNAc", "result": -0.545}, {"measurement": "glycan array binding signal (z-score)", "setting": "[19]", "result": -0.657}, {"measurement": "glycan array binding signal (z-score)", "setting": "[20]", "result": 0.621}, {"measurement": "glycan array binding signal (z-score)", "setting": "[21]", "result": 0.32}, {"measurement": "glycan array binding signal (z-score)", "setting": "[22]", "result": -0.58}, {"measurement": "glycan array binding signal (z-score)", "setting": "[23]", "result": -0.707}, {"measurement": "glycan array binding signal (z-score)", "setting": "[24]", "result": 0.733}]}
